Measured values as given in patent publication US8748389B2, “Treating cancer” (Theryte Limited, priority 2004, dated 2014).
Entries after “also recorded” stand apart in the source; their conditions may differ. At least one peptide structure holds a part that was inferred or is arguable (an end, a ring closure or a residue). Where a SMILES comes first, the peptide text is derived from it.

Assays:
[1] = system: RT112 cells; test: Experiment 2 further experiment, cells viewed under phase contrast microscopy; format: cell-based, human; conditions: 2.5 mM peptide; for appearance of cells: 2 days plus a further 7 days, FIG. 13
[2] = system: HT29 cells; test: as above; format: cell-based, human; conditions: 2.5 mM peptide, 2 days plus a further 7 days, FIG. 13
[3] = system: MGHU-1 cells; test: as above; format: cell-based, human; conditions: 2.5 mM peptide, 2 days plus a further 7 days, FIG. 14
[4] = system: H441 cells; test: % viability by visual observation under phase contrast microscopy, 48 well, Experiment 2 first experiment; format: cell-based, human
Experimental: (§1) In a first experiment, MGHU-1 cells (a human bladder cancer cell line), were plated in 48 well tissue culture dishes in 0.2 ml complete Hams F12 tissue culture medium supplemented with 10% foetal calf serum. SKMEL-2 cells (a human malignant melanoma cell line), HX34 cells (a human malignant melanoma cell line) and H441 cells (a human lung cancer cell line) were plated under identical conditions. The cells were incubated at 37° C. in an atmosphere of 5% CO2.
(§2) After 24 h, the culture medium was then removed from each well and replaced by Hams F12 complete tissue culture medium (without foetal calf serum). The culture medium added to each well was supplemented with a peptide having the sequence set out in SEQ ID NO:1, SEQ ID NO:2 or SEQ ID NO:3 at a concentration of either 0.5, 1.0 or 5.0 mM in such a way that each cell line was exposed to each peptide at each concentration.
(§3) The cells were then cultured for two days. Foetal calf serum was then added to a final concentration of 10%, and the cells were left for a further 5 days. The % viability of the cells in each well was calculated by visual observation under phase contrast microscopy. The effect of the peptides having the amino acid sequences set out in SEQ ID NO:1 and SEQ ID NO:3 on the viability of the SK MeI-2, MGHU-1, HX34 and H441 cell lines is shown in FIG. 12. […] Where the concentration of SEQ ID NO:1 was 1.0 mM, 100% of MGHU-1 cells were killed. The viability of the other cell lines was not affected.

[5] = system: HX34 cells; test: as above; format: cell-based, human
Experimental: as §1, §2, §3

[6] = system: MGHU-1 cells; test: as above; format: cell-based, human
Experimental: as §1, §2, §3

[7] = system: SKMEL-2 cells; test: as above; format: cell-based, human
Experimental: as §1, §2, §3

[8] = system: cancerous cell lines; test: Subsequent experiments testing cancerous and non-cancerous cell lines; format: cell-based
[9] = system: Normal non-cancerous fibroblasts; test: Experiments 3 and 4, 96 well plates, viability by phase contrast microscopy; format: cell-based
Experimental: (§4) Normal non-cancerous fibroblasts and cancer cells were exposed to the linear hexamer PRGPRP SEQ ID NO: 5 in 96 micro well plates using the same protocol as for SEQ. ID NO: 1 as previously described. The percent viability of the cells in each well was calculated by visual observation under phase contrast microscopy as previously described.
(§5) In order to define structure/function relationships different peptides were constructed SEQ ID NOS 5-16. Normal non-cancerous fibroblasts and cancer cells were exposed to 5 mM of these peptides in 96 well plates as previously described. The sequence of these peptides is listed below. Results were scored at 21 days.

[10] = system: cancer cells; test: as above; format: cell-based
Experimental: as §4, §5

[11] = system: RT112 bladder cancer cells; test: Clonogenic cell survival assay (Experiment 5); format: cell-based, human; conditions: 1.0 to 5.0 mM; for cancer cell death (surviving fraction): FIG. 16
[12] = system: non-cancerous fibroblasts; test: Visual observation of fibroblasts during Experiment 5; format: cell-based; conditions: during 15 days, compared with controls without peptide

## CC(C)[C@H](NC(=O)[C@H](CCCNC(=N)N)NC(=O)[C@H](Cc1ccccc1)NC(=O)[C@@H]1CCCN1C(=O)CNC(=O)[C@@H]1CCCN1)C(=O)N1CCC[C@H]1C(=O)N[C@@H](CCC(N)=O)C(=O)N1CCC[C@H]1C(=O)N[C@@H](CCCNC(=N)N)C(=O)O [SEQ ID NO:4, reference compound] (H-PGPFRVPQPR-OH)
[1]
  appearance of cells: normal in appearance
[2]
  appearance of cells: normal in appearance
[3]
  appearance of cells: appear to be healthy

## CC(C)[C@H](NC(=O)[C@@H]1CCCN1C(=O)[C@H](CCCNC(=N)N)NC(=O)[C@@H]1CCCN1C(=O)CNC(=O)[C@H](CCCNC(=N)N)NC(=O)[C@@H]1CCCN1C(=O)[C@@H]1CCCN1C(=O)[C@@H](N)Cc1ccccc1)C(=O)N[C@@H](CCC(N)=O)C(=O)O [SEQ ID NO:1] (H-FPPRGPRPVQ-OH; N-terminus and C-terminus assumed)
[4]; 0.5 mM peptide, day 7
  viability: none of the cell lines appeared to be affected
[4]; 1.0 mM peptide, day 7
  viability: not affected
[4]; 5.0 mM peptide, by day 7
  viability: completely killed
[5]; 0.5 mM peptide, day 7
  viability: none of the cell lines appeared to be affected
[5]; 1.0 mM peptide, day 7
  viability: not affected
[5]; 5.0 mM peptide, by day 7
  viability: completely killed
[6]; 0.5 mM peptide, day 7
  viability: none of the cell lines appeared to be affected
[6]; 1.0 mM peptide, day 7
  cells killed: 100%
[6]; 5.0 mM peptide, by day 7
  viability: completely killed
[7]; 0.5 mM peptide, day 7
  viability: none of the cell lines appeared to be affected
[7]; 1.0 mM peptide, day 7
  viability: not affected
[7]; 5.0 mM peptide, by day 7
  viability: completely killed
[1]
  appearance of cells: shriveled and appear to be senescent
[1]; FIG. 13a
  cell killing: killed
[2]
  appearance of cells: shriveled and appear to be senescent
[3]
  appearance of cells: appear to be dead
[8]; between days 20 and 25
  cell killing: specific killing of cancerous cells
[8]; within the first seven days, cells then recovered
  cell killing: non specific killing

## N=C(N)NCCC[C@H](NC(=O)[C@@H]1CCCN1)C(=O)NCC(=O)N1CCC[C@H]1C(=O)N[C@@H](CCCNC(=N)N)C(=O)N1CCC[C@H]1C(=O)O [SEQ ID NO: 5, PRGPRP] (H-PRGPRP-OH)
[9]; Experiment 4, 5 mM
  growth compared with control fibroblasts not exposed to any peptide: grew better than control fibroblasts
[9]; at 7 days
  fibroblast growth: stimulation of fibroblast growth
[10]; 21 days and beyond
  death of cells: almost total death of cells
[10]; until 21 days
  changes observed in tumour cells: No changes
[11]
  dose response curve: very steep showing a threshold effect
[11]; between 20 and 25 days
  cancer cell death (surviving fraction): becomes more obvious; also recorded: specific cancer cell killing
[11]; scored at 15 days
  cancer cell death (surviving fraction): no cancer cell death is obvious; also recorded: virtually no effect on cancer cell killing
[12]
  fibroblast growth: grew well and possibly even better than controls
